The supplement of paper PMC11732987, “Enantioselective OTUD7B fragment discovery through chemoproteomics screening and high-throughput optimisation” (Communications Chemistry, 2025)
The list shows a part of the results. The data scatter; read single values as rough.

The chains behind the UniProt entries cited, without tags or fusion partners. Where a name states a change or a piece, a line headed by the entry shows the natural chain unless it says otherwise. Residues count along the entry.
UniProt Q92834: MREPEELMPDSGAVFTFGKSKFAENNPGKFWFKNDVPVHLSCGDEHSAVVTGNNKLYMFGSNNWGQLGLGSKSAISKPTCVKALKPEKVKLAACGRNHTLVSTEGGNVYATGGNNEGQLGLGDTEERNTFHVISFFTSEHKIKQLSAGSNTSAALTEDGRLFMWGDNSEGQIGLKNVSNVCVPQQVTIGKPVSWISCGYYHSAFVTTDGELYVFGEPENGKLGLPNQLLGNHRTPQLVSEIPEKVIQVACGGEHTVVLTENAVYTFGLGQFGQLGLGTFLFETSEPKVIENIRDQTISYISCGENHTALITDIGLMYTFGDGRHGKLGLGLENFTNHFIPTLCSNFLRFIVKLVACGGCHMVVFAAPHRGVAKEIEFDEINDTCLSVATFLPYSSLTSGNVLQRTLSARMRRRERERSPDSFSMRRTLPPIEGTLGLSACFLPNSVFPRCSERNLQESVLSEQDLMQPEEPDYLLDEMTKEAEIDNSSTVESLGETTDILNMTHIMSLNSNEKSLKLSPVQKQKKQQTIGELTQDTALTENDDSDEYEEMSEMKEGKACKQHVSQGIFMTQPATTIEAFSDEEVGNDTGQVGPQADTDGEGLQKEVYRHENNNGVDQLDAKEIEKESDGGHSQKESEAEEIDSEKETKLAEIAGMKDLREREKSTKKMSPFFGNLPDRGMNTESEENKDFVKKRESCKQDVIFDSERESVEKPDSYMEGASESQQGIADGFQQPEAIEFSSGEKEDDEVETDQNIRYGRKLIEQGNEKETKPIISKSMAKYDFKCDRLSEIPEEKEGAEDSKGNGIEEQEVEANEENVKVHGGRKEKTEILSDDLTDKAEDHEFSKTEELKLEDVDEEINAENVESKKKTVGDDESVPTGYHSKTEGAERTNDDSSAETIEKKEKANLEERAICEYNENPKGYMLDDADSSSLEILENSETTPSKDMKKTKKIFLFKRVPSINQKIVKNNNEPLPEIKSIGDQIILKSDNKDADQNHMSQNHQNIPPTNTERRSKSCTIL
UniProt Q8IXW5, whole entry, looked up: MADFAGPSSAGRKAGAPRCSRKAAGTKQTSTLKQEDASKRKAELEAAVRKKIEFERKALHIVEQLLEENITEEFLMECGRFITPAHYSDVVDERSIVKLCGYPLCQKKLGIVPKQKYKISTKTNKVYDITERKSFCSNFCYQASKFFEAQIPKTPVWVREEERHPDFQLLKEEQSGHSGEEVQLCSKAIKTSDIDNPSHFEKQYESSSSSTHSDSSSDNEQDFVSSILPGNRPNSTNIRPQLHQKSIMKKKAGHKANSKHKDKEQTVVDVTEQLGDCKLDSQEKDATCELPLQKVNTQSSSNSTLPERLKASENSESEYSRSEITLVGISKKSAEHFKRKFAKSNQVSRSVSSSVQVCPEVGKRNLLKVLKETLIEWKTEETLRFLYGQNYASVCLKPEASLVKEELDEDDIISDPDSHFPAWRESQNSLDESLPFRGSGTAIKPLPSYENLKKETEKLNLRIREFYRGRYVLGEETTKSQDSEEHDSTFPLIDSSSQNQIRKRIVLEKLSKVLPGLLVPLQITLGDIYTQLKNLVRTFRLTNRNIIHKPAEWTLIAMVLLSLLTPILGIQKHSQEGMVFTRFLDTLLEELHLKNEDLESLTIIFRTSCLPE
UniProt Q8IXW5, 160-187: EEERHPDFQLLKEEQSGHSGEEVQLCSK
UniProt P23921, 657-677: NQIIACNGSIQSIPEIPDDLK
UniProt Q8ND24, 2-26: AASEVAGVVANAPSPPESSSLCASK
UniProt Q96AT9: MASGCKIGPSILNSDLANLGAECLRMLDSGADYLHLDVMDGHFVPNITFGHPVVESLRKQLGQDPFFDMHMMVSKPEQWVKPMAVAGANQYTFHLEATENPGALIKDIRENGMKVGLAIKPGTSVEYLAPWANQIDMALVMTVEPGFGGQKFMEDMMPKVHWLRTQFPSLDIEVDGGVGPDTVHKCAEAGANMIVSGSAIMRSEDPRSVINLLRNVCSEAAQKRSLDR
UniProt Q9NZJ4: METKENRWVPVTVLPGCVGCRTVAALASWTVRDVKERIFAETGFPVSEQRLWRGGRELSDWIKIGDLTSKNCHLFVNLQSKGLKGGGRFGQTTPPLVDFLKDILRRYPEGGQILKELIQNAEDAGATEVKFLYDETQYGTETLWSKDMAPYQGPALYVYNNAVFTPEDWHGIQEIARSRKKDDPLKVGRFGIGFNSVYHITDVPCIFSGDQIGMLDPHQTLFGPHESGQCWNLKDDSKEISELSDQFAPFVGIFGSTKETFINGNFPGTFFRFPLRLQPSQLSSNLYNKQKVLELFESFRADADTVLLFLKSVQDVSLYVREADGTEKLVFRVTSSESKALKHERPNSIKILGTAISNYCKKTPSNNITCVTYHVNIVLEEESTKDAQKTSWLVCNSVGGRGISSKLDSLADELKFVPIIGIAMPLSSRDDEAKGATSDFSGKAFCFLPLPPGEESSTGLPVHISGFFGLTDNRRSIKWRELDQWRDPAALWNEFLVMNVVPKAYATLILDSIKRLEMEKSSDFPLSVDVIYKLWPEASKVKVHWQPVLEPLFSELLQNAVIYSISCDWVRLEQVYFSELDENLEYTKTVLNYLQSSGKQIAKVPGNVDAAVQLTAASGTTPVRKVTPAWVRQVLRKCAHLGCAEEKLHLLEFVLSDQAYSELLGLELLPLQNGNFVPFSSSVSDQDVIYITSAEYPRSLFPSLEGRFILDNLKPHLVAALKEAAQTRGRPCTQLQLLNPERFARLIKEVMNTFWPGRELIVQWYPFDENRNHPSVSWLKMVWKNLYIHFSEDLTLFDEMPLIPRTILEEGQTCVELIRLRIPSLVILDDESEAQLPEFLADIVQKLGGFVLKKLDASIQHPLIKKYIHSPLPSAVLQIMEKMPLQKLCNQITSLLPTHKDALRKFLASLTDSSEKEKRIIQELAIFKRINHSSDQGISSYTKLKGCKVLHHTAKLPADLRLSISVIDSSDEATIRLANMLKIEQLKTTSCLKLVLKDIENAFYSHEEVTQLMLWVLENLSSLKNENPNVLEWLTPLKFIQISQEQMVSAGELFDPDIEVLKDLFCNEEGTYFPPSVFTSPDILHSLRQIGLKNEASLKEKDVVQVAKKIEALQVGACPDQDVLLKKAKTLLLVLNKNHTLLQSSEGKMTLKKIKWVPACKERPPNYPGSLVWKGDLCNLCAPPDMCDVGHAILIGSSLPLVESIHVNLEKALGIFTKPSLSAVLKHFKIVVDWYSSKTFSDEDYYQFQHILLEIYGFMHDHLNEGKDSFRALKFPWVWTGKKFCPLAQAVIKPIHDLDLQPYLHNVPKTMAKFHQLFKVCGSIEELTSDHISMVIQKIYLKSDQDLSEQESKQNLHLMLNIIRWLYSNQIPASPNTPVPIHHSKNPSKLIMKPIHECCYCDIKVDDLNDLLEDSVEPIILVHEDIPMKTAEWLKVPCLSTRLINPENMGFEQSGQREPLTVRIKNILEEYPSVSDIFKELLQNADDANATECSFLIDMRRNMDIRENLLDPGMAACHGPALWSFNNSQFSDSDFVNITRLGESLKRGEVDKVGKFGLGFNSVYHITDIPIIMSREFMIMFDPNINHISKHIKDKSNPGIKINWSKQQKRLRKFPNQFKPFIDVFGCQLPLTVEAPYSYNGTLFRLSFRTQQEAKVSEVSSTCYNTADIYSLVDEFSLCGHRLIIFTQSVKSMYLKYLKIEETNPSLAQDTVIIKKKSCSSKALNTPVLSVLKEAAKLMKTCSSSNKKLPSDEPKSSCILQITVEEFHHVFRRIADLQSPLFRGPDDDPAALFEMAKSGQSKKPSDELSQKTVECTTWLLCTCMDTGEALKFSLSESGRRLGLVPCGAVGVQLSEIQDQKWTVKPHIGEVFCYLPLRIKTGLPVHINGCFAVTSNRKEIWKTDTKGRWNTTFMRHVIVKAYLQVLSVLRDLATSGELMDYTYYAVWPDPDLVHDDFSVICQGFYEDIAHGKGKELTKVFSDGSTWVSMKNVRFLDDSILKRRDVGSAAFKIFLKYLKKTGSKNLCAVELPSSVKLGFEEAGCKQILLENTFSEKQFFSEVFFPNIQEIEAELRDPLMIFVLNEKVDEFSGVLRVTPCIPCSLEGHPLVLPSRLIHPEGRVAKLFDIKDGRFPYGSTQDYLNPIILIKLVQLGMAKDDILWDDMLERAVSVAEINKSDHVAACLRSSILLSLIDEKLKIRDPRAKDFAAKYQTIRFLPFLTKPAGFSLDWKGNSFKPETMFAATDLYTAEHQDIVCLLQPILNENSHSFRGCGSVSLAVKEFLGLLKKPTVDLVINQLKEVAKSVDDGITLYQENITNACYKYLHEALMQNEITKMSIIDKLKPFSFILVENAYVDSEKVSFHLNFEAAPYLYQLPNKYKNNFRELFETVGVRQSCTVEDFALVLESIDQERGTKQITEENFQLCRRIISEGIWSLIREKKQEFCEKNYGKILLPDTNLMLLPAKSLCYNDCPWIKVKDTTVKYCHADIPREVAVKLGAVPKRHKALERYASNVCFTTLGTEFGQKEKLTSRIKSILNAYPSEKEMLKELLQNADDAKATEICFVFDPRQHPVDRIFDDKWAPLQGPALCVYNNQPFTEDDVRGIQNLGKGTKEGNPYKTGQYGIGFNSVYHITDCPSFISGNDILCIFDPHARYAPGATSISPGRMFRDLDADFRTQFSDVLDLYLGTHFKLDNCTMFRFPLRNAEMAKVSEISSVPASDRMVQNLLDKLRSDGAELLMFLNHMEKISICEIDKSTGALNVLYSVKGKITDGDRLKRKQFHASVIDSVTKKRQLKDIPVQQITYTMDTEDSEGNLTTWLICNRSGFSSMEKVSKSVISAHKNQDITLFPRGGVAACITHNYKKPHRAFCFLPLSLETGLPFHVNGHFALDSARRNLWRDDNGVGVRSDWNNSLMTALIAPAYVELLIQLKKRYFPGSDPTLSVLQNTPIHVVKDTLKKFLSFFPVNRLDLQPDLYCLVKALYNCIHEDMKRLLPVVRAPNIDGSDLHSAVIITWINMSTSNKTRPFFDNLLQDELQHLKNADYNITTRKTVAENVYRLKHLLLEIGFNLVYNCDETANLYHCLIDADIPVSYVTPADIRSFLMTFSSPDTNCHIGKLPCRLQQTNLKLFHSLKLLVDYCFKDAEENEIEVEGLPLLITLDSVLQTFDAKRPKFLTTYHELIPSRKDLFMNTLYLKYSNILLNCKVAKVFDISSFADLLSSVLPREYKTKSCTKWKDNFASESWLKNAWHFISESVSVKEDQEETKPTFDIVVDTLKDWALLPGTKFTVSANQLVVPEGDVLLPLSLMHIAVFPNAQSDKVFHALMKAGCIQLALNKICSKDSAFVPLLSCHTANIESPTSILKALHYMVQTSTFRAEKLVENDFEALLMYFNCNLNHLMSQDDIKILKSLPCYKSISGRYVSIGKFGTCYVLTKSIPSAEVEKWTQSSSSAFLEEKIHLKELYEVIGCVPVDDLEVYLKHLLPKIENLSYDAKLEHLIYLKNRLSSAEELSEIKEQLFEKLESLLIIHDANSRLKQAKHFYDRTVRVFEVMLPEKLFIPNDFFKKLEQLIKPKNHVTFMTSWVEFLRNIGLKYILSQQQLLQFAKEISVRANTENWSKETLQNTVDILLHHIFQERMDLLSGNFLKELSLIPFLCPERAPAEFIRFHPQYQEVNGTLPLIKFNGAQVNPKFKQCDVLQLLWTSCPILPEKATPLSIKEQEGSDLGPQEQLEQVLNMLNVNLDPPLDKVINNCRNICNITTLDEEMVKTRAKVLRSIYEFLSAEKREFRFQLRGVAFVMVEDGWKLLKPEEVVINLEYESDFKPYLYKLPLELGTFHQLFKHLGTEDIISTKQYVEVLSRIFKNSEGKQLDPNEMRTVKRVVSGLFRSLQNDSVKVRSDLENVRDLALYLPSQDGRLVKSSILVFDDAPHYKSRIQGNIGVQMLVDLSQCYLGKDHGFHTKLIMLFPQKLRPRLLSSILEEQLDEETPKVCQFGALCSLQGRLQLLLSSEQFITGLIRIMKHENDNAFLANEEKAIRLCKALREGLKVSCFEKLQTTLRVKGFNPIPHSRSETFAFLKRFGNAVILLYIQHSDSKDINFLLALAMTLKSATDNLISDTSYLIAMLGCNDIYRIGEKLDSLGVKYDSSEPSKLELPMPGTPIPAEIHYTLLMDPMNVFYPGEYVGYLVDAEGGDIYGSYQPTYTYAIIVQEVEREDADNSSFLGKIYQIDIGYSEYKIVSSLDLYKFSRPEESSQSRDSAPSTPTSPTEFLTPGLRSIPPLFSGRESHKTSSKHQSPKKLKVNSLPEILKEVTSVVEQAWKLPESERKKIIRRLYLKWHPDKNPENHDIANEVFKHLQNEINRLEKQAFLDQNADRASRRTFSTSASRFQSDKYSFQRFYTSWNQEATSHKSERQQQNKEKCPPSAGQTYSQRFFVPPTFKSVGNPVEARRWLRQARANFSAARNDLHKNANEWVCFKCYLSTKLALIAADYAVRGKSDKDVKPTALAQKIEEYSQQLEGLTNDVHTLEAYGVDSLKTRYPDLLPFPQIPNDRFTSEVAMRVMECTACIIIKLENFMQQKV
UniProt Q969K3, 139-168: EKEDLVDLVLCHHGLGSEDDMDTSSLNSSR

Tests used:
[1] = compound: ClCC(=O)N[C@@H]1CCCc2ccccc12; assay: log2 mean competition ratio of IA-DTB cysteine labelling (DMSO/compound) (log2 ratio); higher = stronger cysteine engagement by compound; conditions: treatment time: 4 h, cell line lysate: HEK293T
Experimental: (§1)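 IA-DTB competitive cysteine chemoproteomics in HEK293T RIPA lysate. Lysates were treated with compound 29 or 30 at 50 or 200 µM for 4 h, then IA-DTB (500 µM, 1 h), trypsin-digested, NeutrAvidin-enriched and analysed by diaPASEF. Competition ratio = intensity DMSO / intensity compound (n=4 treated, n=64 DMSO); binding: mean log2 CR ≥ 1 and p ≤ 0.05 plus QC filters. Target is the cysteine site.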

[2] = compound: ClCC(=O)N[C@H]1CCCc2ccccc12; assay: as above; conditions: treatment time: 4 h, cell line lysate: HEK293T
Experimental: as §1

Row | Target | log2 mean competition ratio ([1]; 50 µM) | log2 mean competition ratio ([1]; 200 µM) | log2 mean competition ratio ([2]; 50 µM) | log2 mean competition ratio ([2]; 200 µM)
1 | RPS19BP1 C104 (UniProt Q86WX3) | 0.425 | -0.28 | 0.12 | -0.0466
2 | ROR1 C848 | 0.313 | 0.0213 | 0.469 | -0.0311
3 | RPL24 C36 (UniProt P83731) | 0.231 | -0.056 | 0.312 | 0.0262
4 | RRP12 C261 (UniProt Q5JTH9) | 0.415 | 0.239 | 0.569 | 0.196
5 | RPAP1 C618 (UniProt Q9BWH6) | 0.388 | 0.454 | 0.366 | 0.414
6 | RNASEL C198 (UniProt Q05823) | -0.289 | 0.227 | 0.784 | -0.15
7 | RPGR C914 (UniProt Q92834) | 0.0345 | -0.0854 | -0.323 | -0.0585
8 | RPS11 C131 (UniProt P62280) | 0.127 | -0.137 | 0.243 | -0.269
9 | RPRD1B C234 (UniProt Q9NQG5) | -0.334 | -0.0948 | 0.00511 | -0.16
10 | SACM1L C445 (UniProt Q9NTJ5) | -0.0176 | -0.121 | -0.203 | -0.0941
11 | RTN3 C582 (UniProt O95197) | -0.223 | -0.0606 | -0.203 | -0.0683
12 | RRBP1 C1216 (UniProt Q9P2E9) | 0.137 | -0.161 | -0.0138 | -0.221
13 | RO60 C119 (UniProt P10155) | 0.0305 | 0.128 | 0.249 | 0.153
14 | RPGRIP1L C173 | -0.114 | -0.0475 | 0.0724 | -0.129
15 | RRM2 C202 (UniProt P31350) | 0.0987 | -0.164 | 0.191 | -0.1
16 | RPAP2 C288 (UniProt Q8IXW5) | -0.33 | 0.287 | -0.00621 | 0.183
17 | RRM1 C662 (UniProt P23921) | -0.113 | -0.713 | 0.142 | -0.605
18 | RNF214 C23 (UniProt Q8ND24) | -0.498 | -0.0624 | 0.0201 | 0.332
19 | RNF114 C110 (UniProt Q9Y508) | 0.0392 | -0.0261 | -0.113 | 0.0351
20 | RNF169 C103 (UniProt Q8NCN4) | 0.084 | 0.0702 | 0.0309 | 0.129

Row | Target | log2 mean competition ratio ([1]; 50 µM) | log2 mean competition ratio ([1]; 200 µM) | log2 mean competition ratio ([2]; 50 µM) | log2 mean competition ratio ([2]; 200 µM)
21 | RPRD2 C222 (UniProt Q5VT52) | -0.0466 | 0.0893 | -0.246 | 0.156
22 | RPL27A C70 (UniProt P46776) | 0.327 | -0.144 | 0.649 | 0.00118
23 | RTKN C306 (UniProt Q9BST9) | -0.169 | 0.00137 | 0.1 | -0.149
24 | RNF31 C572 (UniProt Q96EP0) | -0.104 | 0.149 | 0.209 | 0.052
25 | RNPEP C181 (UniProt Q9H4A4) | -0.133 | 0.265 | -0.256 | 0.553
26 | RNF25 C360 (UniProt Q96BH1) | 0.353 | -0.695 | 0.37 | -0.231
27 | SAE1 C146 | -0.144 | -0.172 | -0.0428 | -0.368
28 | RNF213 C3330 | 0.203 | 0.0627 | 0.134 | 0.107
29 | RNF213 C4258 | -0.0119 | 0.29 | 0.197 | 0.28
30 | RPAP2 C185 (UniProt Q8IXW5) | -0.125 | 0.134 | -0.403 | -0.0587
31 | RTTN C1889 (UniProt Q86VV8) | 0.161 | -0.0432 | -0.104 | -0.109
32 | RPE C217 (UniProt Q96AT9) | -0.138 | -0.189 | -0.122 | -0.202
33 | RPP25 C70 (UniProt Q9BUL9) | 0.492 | 0.12 | 0.357 | 0.188
34 | ROR1 C482 | -0.121 | -0.112 | -0.258 | -0.0811
35 | RSBN1L C818 (UniProt Q6PCB5) | -0.0604 | 0.00129 | 0.0617 | -0.151
36 | RTCA C153 (UniProt O00442) | 0.0243 | 0.134 | 0.256 | -0.125
37 | RPS3 C119 | 0.418 | -0.548 | 0.827 | -0.319
38 | RPTOR C1202 (UniProt Q8N122) | 0.0469 | 0.0459 | -0.179 | 0.183
39 | RPL32 C96 | 0.373 | 0.0369 | -0.0574 | -0.0505
40 | RNF213 C3554 | 0.0889 | 0.389 | -0.0869 | 0.446

Part of the list above in another layout:
Row,Target,log2 mean competition ratio ([1]; 50 µM),log2 mean competition ratio ([1]; 200 µM),log2 mean competition ratio ([2]; 50 µM),log2 mean competition ratio ([2]; 200 µM)
25,RNPEP C181 (UniProt Q9H4A4),-0.133,0.265,-0.256,0.553
33,RPP25 C70 (UniProt Q9BUL9),0.492,0.12,0.357,0.188
35,RSBN1L C818 (UniProt Q6PCB5),-0.0604,0.00129,0.0617,-0.151

Remaining list, next part

Row | Target | log2 mean competition ratio ([1]; 50 µM) | log2 mean competition ratio ([1]; 200 µM) | log2 mean competition ratio ([2]; 50 µM) | log2 mean competition ratio ([2]; 200 µM)
41 | SACS C2976 (UniProt Q9NZJ4) | 0.522 | -0.105 | -0.408 | -0.271
42 | RPP30 C225 | -0.031 | 0.0438 | 0.0416 | 0.0676
43 | RNMT C73 (UniProt O43148) | -0.234 | 0.027 | -0.362 | 0.19
44 | RNF213 C2633 | 0.0216 | -0.142 | 0.228 | -0.0526
45 | RNF7 C61 (UniProt Q9UBF6) | 0.484 | 0.12 | 0.66 | 0.24
46 | RNF169 C293 (UniProt Q8NCN4) | -0.0118 | 0.113 | 0.112 | -0.18
47 | SACS C814 (UniProt Q9NZJ4) | -0.493 | -0.346 | -0.262 | -0.337
48 | RREB1 C1242 (UniProt Q92766) | 0.479 | -0.0605 | 0.275 | 0.312
49 | RNF213 C2536 | 0.103 | 0.342 | -0.0257 | 0.0575
50 | RNF213 C856 | -0.145 | -0.102 | -0.0443 | -0.24
51 | RPP38 C80 (UniProt P78345) | 0.113 | -0.0151 | 0.0734 | 0.0285
52 | ROCK2 C804 (UniProt O75116) | -0.224 | -0.331 | 0.355 | 0.127
53 | RNF150 C304 |  | -0.034 | -0.346 | -0.194
54 | RPAP2 C277 (UniProt Q8IXW5) | -0.213 |  | -0.318 | 0.329
55 | RTN4 C1101 | 0.338 | -0.115 | 0.0679 | -0.199
56 | SACS C3203 (UniProt Q9NZJ4) |  | 0.174 | 0.401 | 0.075
57 | RTEL1 C20 (UniProt Q9NZ71) | 0.137 | -0.15 | 0.861 | 0.177
58 | RNF34 C149 (UniProt Q969K3) | -0.511 | 0.0102 | -0.126 | 0.222
59 | RPS3A C111 | 0.185 | -0.0131 | 0.197 | -0.0507
